Source: patent US11420962B2, “Indene derivatives useful in treating pain and inflammation” (TARO PHARMACEUTICALS INC., priority 2018, dated 2022)

Assays:
[1] = tested on: Rats (female, Sprague-Dawley); experiment: Rat ketamine cystitis (visceral pain); assay type: in vivo; conditions: 10 mg/kg dose
Method: Rats (female, Sprague-Dawley) received daily intraperitoneal injections of saline (sham control) or ketamine (50 mg/kg) for 14 days. Representative compounds of the invention (i.e., test compounds) were administered PO, QD starting on Day 0 at doses of 10, 3 or 1 mg/kg and Tramadol was used as a reference control compound at 10 mg/kg. Referred mechanical sensitivity was assessed on Day 7 and Day 14 by application of a series of von Frey filaments to the lower abdomen and the nociceptive threshold was scored.

Mice (male, C57Bl/6) = experiment: Formalin pain assay in mice; assay type: in vivo
Method: Mice (male, C57BL/6) were placed singly in a Perspex chamber for approximately 30 min on three successive days to acclimate and thereby reduce stress-induced behaviors. On the fourth day, the experimental animals received a 25 μl injection of 2.5% formalin beneath the left plantar skin using a 29-gauge syringe. […] The total time spent on flinches/licking/biting of the hind paw was recorded by visual observation for every 5 min period/interval for total observation duration of 60 min in two phases, the early phase (0-5 min) and the late phase (15-40 min). Observers were blinded to the treatment group allocation.
For test compounds, the % protection from 0-60 min was used to assess activity. Scoring for the test compounds was as follows: “A” represents a % protection of 81 to 100%, “B” represents a % protection of 61 to 80%, “C” represents a % protection of 31 to 60% and “D” represents a % protection of 0 to 30%.

COc1cccc(C2(O)CCCCC2CN(C)C)c1 (stereo not shown) [tramadol, reference compound]
increase in the nociceptive threshold (relative to unchallenged) [1]: 85%
% inhibition, early phase (neurogenic pain) (Mice (male, C57Bl/6); 10 mg/kg dose, 0-5 min): 51%
% inhibition, late phase (inflammatory pain) (Mice (male, C57Bl/6); 10 mg/kg dose, 15-40 min): 62%
Average AUC % Inhibition (Mice (male, C57Bl/6); reference compound): 59%
